Experimental data reported in US20180136242A1 (Autotelic LLC, priority 2014, published 2018).
Some of these results come from one statement about several compounds together.

By UniProt entry, the sequences of proteins in these tests, tags left out. Residues count along the entry.
UniProt P02769, 25-607: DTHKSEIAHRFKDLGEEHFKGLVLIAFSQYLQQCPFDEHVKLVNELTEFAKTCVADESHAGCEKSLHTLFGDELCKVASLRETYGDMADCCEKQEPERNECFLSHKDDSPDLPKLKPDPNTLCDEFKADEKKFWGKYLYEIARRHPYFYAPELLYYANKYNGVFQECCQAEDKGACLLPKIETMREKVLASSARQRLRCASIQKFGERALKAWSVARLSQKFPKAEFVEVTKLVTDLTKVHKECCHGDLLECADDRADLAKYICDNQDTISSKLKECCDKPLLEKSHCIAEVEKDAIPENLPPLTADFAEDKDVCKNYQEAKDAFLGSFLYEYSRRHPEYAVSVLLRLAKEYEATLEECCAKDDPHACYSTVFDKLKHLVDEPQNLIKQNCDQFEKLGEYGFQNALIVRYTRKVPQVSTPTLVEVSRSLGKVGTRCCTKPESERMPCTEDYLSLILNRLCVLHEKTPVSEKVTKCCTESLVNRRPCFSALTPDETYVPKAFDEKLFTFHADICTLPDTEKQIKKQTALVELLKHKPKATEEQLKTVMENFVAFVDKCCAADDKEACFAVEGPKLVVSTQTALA

Molecular target: BSA-paclitaxel antigen (Bos taurus, UniProt P02769)
Experiment: Direct binding ELISA of intact IgGs to BSA-paclitaxel antigen (FIG. 4)
Experimental: FIG. 4 is a graph illustrating direct binding of intact IgGs (8A10 and 3C6) of the invention to a BSA-paclitaxel antigen on an ELISA.
Antibody affinity. 50 μL of BSA-paclitaxel antigen at a concentration of 3.5 μg/mL in 1× PBS was bound to a plate and incubated at 4° C. overnight. The plate was washed four ties with PBS/0.05% Tween 20. The plate was blocked for 2 hours with 1% BSA in PBS/0.05% Tween 20 at room temperature. The plate was washed four ties with PBS/0.05% Tween 20. 50 μL of antibody sample (8A10 and 3C6) was bound (start at 300 nM and titer down by 3s). The plate was washed four times with PBS/0.05% Tween 20. 50 μL of goat anti mIgG horseradish peroxidase (1:5000 dilution) was bound and then 50 μL of substrate solution TMB was added and the color allowed to develop. The reaction was stopped with 50 μL 1M HCl and the optical density was read at 450 nm.

B1: 8A10: anti-taxane IgG2a mouse monoclonal antibody; variable regions SEQ ID NOS: 2 and 4 (antibody, V domains shown)
VL: DIVMTQSQKFMSITLGERVSITCKPSQNVGSAVTWWQQKPGQSPKLLIYSASNRYTGVPDRFTGSGSGTDFTLTISNVQSEDLADYFCQQYSSYPYTFGGGTKLEIKR
VH: EVQLQQSGPELVKPGASVKISCKASGYTFTDSTMNWVKQSHGKSLEWIGEIDPNNGGTNYNQKFKGKATLTVDKSSSTAYMELRSLTSEDSAVYYCARGVWGQGTTLTVSS
modifications: mouse IgG2a constant regions
sensitivity limit: 100 to 200 ng/mL
